{"source": "PubChem BioAssay AID540256", "about": "(National Center for Advancing Translational Sciences (NCATS), 2011)", "note": "The campaign covered roughly 300,000 compounds. About 3,700 (1.2%) were called active. The shares of active, inactive and inconclusive entries below differ from those in the screen. Calls follow the shape of the full dose curve; tested in HEK293 cells. A potency beside an inconclusive call is a rough fit, not a confirmed value. % is scaled to controls: 0 for no effect and ±100 for the full control effect; potency is read from the fitted curve at half-maximal effect.", "data": [{"assay": "qHTS for Inhibitors of binding or entry into cells for Lassa Virus; also: nearly all actives have a fitted effect of over 50% in size", "conditions": "Lassa virus pseudotype entry inhibition, cell reporter; activity change, negative = inhibition: at 37.9 µM (top of the series) unless noted", "values": [{"compound": "O=C(c1cc(S(=O)(=O)N2CCN(c3ccccc3)CC2)ccc1Cl)N1CCCCCCC1", "Potency": "inconclusive: 17.8 µM [inhibitor, single point]"}, {"compound": "CC(=O)c1ccc(NC(=O)/C=C/c2ccc(C)o2)cc1", "activity change, negative = inhibition": "inactive: 10.4% [at 46.1 µM]"}, {"compound": "CCOc1ccc(C2c3c(oc4ccccc4c3=O)C(=O)N2Cc2ccc3c(c2)OCO3)cc1", "note": "(stereo unspecified)", "activity change, negative = inhibition": "inactive: -6.35% [at 46.1 µM]"}, {"compound": "O=C(N/N=C/c1cccc(Oc2ccccc2)c1)c1ccccc1Br", "Potency": "active: 6.51 µM"}, {"compound": "CC(=O)[C@]1(O)Cc2c(O)c3c(c(O)c2[C@@H](O[C@H]2C[C@H](N)[C@H](O)[C@H](C)O2)C1)C(=O)c1c(O)cccc1C3=O", "Potency": "active: 0.158 µM"}, {"compound": "O=C(NCC(O)c1ccccc1)c1ccc(Cl)c(S(=O)(=O)N2CCCC2)c1", "note": "(stereo unspecified)", "activity change, negative = inhibition": "inactive: 2.92%"}, {"compound": "Cc1cc(C)c([N+](=O)[O-])cc1-c1ccc(/C=N/c2c(-c3ccco3)nc3ccccn23)o1", "activity change, negative = inhibition": "inactive: 0.968%"}, {"compound": "COc1ccc(CCNC(=O)c2ccc3ccccc3n2)cc1OC", "Potency": "inconclusive: 23.1 µM [inhibitor, partial curve]"}, {"compound": "COC(=O)c1ccc(OC)c(CSc2nnc(COc3ccc(OC)cc3)o2)c1", "Potency": "inconclusive: 18.3 µM [inhibitor, single point]"}, {"compound": "CCOc1ccc(C(=O)/C=C/c2ccc(OC)c(OC)c2)cc1", "Potency": "inconclusive: 7.08 µM [inhibitor, full curve, poor fit]"}, {"compound": "COc1ccc(Nc2cc(C(=O)NCc3ccccc3)c3ccccc3n2)cc1", "activity change, negative = inhibition": "inactive: -5.71% [at 46.1 µM]"}, {"compound": "COc1ccc(/C=N/Nc2snc(SC)c2C#N)cc1OC", "Potency": "active: 6.31 µM"}, {"compound": "CCC1CN(C(=O)N2CCC(C(=O)NCc3ccc(C)o3)CC2)c2ccccc2O1", "note": "(stereo unspecified)", "activity change, negative = inhibition": "inactive: 8.92% [at 46.1 µM]"}, {"compound": "Cc1cccc(C(=O)NCCCNC(=O)c2cccc(C)c2)c1", "Potency": "inconclusive: 6.31 µM [inhibitor, single point]"}, {"compound": "Cc1csc(N/N=C/c2ccc([N+](=O)[O-])cc2)n1", "activity change, negative = inhibition": "inactive: -4.99% [at 46.1 µM]"}, {"compound": "CCCCCCOc1ccc(N2C(=O)CC(S/C(N)=N/N=C(\\C)c3cccs3)C2=O)cc1", "note": "(stereo unspecified)", "Potency": "inconclusive: 5.17 µM [inhibitor, partial curve, poor fit]"}, {"compound": "Cc1ccc(S(=O)(=O)c2nnn3c2nc(NCc2ccc(F)cc2)c2sccc23)cc1C", "activity change, negative = inhibition": "inactive: -27.7% [at 46.1 µM]"}, {"compound": "CCNC(=S)NNC(=O)c1ccccn1", "Potency": "inconclusive: 5.17 µM [inhibitor, partial curve, poor fit]"}, {"compound": "C/C(=N\\NC(=O)Cc1ccc(F)cc1)c1ccc(F)cc1", "activity change, negative = inhibition": "inactive: 0.896%"}, {"compound": "CN(C)S(=O)(=O)c1cccc(NC(=S)NCc2ccco2)c1", "activity change, negative = inhibition": "inactive: -3.41% [at 46.1 µM]"}, {"compound": "Cc1cc(C)cc(C(=O)NC(=S)Nc2ccc3c(c2)OCCO3)c1", "activity change, negative = inhibition": "inactive: -25.6%"}, {"compound": "Cc1ccc(-c2csc(Cc3nc(-c4ccc5c(c4)CCC(=O)N5)cs3)n2)cc1", "activity change, negative = inhibition": "inactive: -12.5%"}, {"compound": "CCc1cc(C(=O)NC(C)C2CCCO2)cs1", "note": "(stereo unspecified)", "Potency": "inconclusive: 35.5 µM [activator, single point]"}, {"compound": "CC(C)Oc1cccc(C(=O)NC(=S)Nc2ccccc2)c1", "Potency": "inconclusive: 18.4 µM [inhibitor, single point]"}, {"compound": "C/C(=N/NC(=O)c1cccs1)c1ccc(NC(=O)COc2ccc(Cl)cc2)cc1", "Potency": "active: 10 µM"}, {"compound": "Cc1ccc2c(CC(=O)Nc3cccc(S(=O)(=O)N4CCOCC4)c3)coc2c1", "Potency": "inconclusive: 12.6 µM [inhibitor, single point]"}, {"compound": "Cc1nc2ncnn2c(N2CCN(C(c3ccccc3)c3ccccc3)CC2)c1C", "Potency": "inconclusive: 16.4 µM [inhibitor, single point]"}, {"compound": "CN1CCN(C(=O)CCN2C(=O)/C(=C\\c3ccc(F)cc3)SC2=S)CC1", "Potency": "inconclusive: 12.6 µM [inhibitor, single point]"}, {"compound": "O=C(c1cc(F)ccc1F)C1CCCN(C(=O)c2ccc(F)cc2Cl)C1", "note": "(stereo unspecified)", "Potency": "inconclusive: 12.6 µM [inhibitor, single point]"}, {"compound": "CCN1CCN(c2cc(N3CCCC3)c([N+](=O)[O-])cc2F)CC1", "activity change, negative = inhibition": "inactive: 10.9%"}, {"compound": "Cc1ccc(C)c(N2N=C(C(=O)Nc3cccc(S(=O)(=O)N4CCCCC4)c3)CCC2=O)c1", "Potency": "inconclusive: 12.6 µM [inhibitor, partial curve, poor fit]"}, {"compound": "O=C(COC(=O)Cc1c(Cl)cccc1Cl)NCC1CCCO1", "note": "(stereo unspecified)", "Potency": "inconclusive: 35.5 µM [inhibitor, single point]"}, {"compound": "CCCc1nc(SCC(=O)Nc2nccs2)c2ccccc2n1", "Potency": "inconclusive: 14.1 µM [activator, single point]"}, {"compound": "Cc1cccc(OCC(=O)Nc2ccc3oc(-c4ccccc4F)nc3c2)c1", "Potency": "inconclusive: 10 µM [activator, partial curve]"}, {"compound": "COc1ccc(NC(=O)c2cc(S(=O)(=O)NCCC3=CCCCC3)ccc2F)cc1", "Potency": "inconclusive: 35.5 µM [inhibitor, single point]"}, {"compound": "Cc1ccc(NC(=O)[C@@H]2CCCN2S(=O)(=O)c2ccccc2F)cc1S(=O)(=O)N1CCOCC1", "Potency": "inconclusive: 3.55 µM [activator, partial curve, poor fit]"}, {"compound": "COc1ccc(-c2nc3cc(C(C)C)ccc3o2)cc1NC(=O)c1ccc(C)c(Cl)c1", "activity change, negative = inhibition": "inactive: 25.6% [at 46.1 µM]"}, {"compound": "COc1ccc(Cc2cnc(N)s2)cc1", "activity change, negative = inhibition": "inactive: 0.144% [at 46.1 µM]"}, {"compound": "O=[N+]([O-])c1nn(-c2ccc3c(c2)OCCO3)n(O)c1=Nc1ccc(Cl)cc1", "Potency": "inconclusive: 16.4 µM [inhibitor, partial curve, poor fit]"}, {"compound": "Cc1cccc(C)c1NC(=O)CNC(=O)CNC(=O)c1ccc2c(c1)OCO2", "Potency": "inconclusive: 11.2 µM [activator, single point]"}, {"compound": "O=S(=O)(NC(=NC1CCCCC1)c1ccccc1)c1ccc(F)cc1", "activity change, negative = inhibition": "inactive: 0.146%"}, {"compound": "CCN(CC)S(=O)(=O)c1ccc(C(=O)NC2=C(C(=O)OC)SCC2)cc1", "Potency": "inconclusive: 25.9 µM [inhibitor, single point]"}, {"compound": "C=CCn1c(C)cc(C(=O)CN2C(=O)c3ccccc3C2=O)c1C", "Potency": "inconclusive: 8.2 µM [inhibitor, partial curve]"}, {"compound": "O=C(NCCSSCCNC(=O)c1ccccc1)c1ccccc1", "Potency": "inconclusive: 35.5 µM [activator, single point]"}, {"compound": "CCN(CC)c1ccc(C(=O)OCc2cc(=O)oc3cc(O)ccc23)cc1", "Potency": "active: 14.6 µM"}, {"compound": "CC(C)CC(=O)N/C(N)=N/c1nc2ccccc2o1", "Potency": "inconclusive: 0.631 µM [inhibitor, full curve, poor fit]"}]}]}
